# Data as given in PubChem BioAssay AID652259 (Drosophila RNAi Screening Center, 2013)
# Test: 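Genome-wide hunt for genes that control Wingless pathway activity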 (primary screen)
# System: Drosophila clone 8 imaginal disc epithelial cells
# Reagents: long dsRNA against Drosophila genes
# Treatment: pathway stimulated by co-transfected Wingless expression plasmid
# Read-out: 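Dual luciferase reads per well after Wingless plasmid stimulation: reporter firefly light and Renilla control light; activity is firefly divided by Renilla, a ratio not deposited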
# Reading the numbers: firefly reporter light: higher = more Wg reporter light, before normalisation; Renilla control light: higher = more transfected or surviving cells
# Hit rule: 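a knock-down is a candidate when at least two out of four statistical tests show it departing from its plate mean; one test alone signals a weak candidate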
# Calls: active = candidate regulator (raises or lowers reporter); inactive = not a candidate
# The deposit covers about 22,000 reagents; below is a random part of those that have a named target and a result. Over the whole deposit, 233 (1.1%) are marked active. 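Light values are raw, unnormalised plate reads; the ratio scores behind the reporter calls were not deposited.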 Names joined by + are all predicted targets of the reagent. The record does not give: the amount of reagent, the time to read-out, the dose of the treatment.
The opening 6 entries, to show the layout:
"reporter change call, replicate 1","firefly reporter light, replicate 1","firefly reporter light, replicate 2","Renilla control light, replicate 1","Renilla control light, replicate 2",outcome,target,PubChem SID
,12468,,3031,,inactive,cysu,SID104195694
,15835,,12385,,inactive,gammaCOP,SID104196747
,4848,10608,832,2241,inactive,mle,SID104184713
,4389,,1707,,inactive,CG6683,SID104190486
,4171,13011,1575,5213,inactive,dila,SID104186399
,2346,,1332,,inactive,CG33490,SID104190379

The list itself, from the first entry:
"reporter change call, replicate 1","firefly reporter light, replicate 1","firefly reporter light, replicate 2","Renilla control light, replicate 1","Renilla control light, replicate 2",outcome,target,PubChem SID
,12468,,3031,,inactive,cysu,SID104195694
,15835,,12385,,inactive,gammaCOP,SID104196747
,4848,10608,832,2241,inactive,mle,SID104184713
,4389,,1707,,inactive,CG6683,SID104190486
,4171,13011,1575,5213,inactive,dila,SID104186399
,2346,,1332,,inactive,CG33490,SID104190379
,3114,,1853,,inactive,Ctps,SID104189134
,5123,,1737,,inactive,Ctps,SID104190520
,3825,,3284,,inactive,Ctps,SID104190521
,12960,,4765,,inactive,Ciao1,SID104185962
,15524,,8859,,inactive,CG15882,SID104199527
,15154,,3190,,inactive,mRpL47,SID104196619
,5264,,2250,,inactive,CG4594,SID104182554
,17256,,12073,,inactive,HLH3B,SID104198461
,3904,6865,817,2560,inactive,jing,SID104184715
,25593,,11986,,inactive,jing,SID104184719
,12680,,3336,,inactive,jing,SID104184792
,16776,,3962,,inactive,zen,SID104192424
Wg reporter activity raised,36787,,3818,,active,CSN3,SID104191651
,9874,,2609,,inactive,Amacr,SID104182990
,3011,,1293,,inactive,park,SID104191410
,9477,,3456,,inactive,Rpt4R,SID104190583
,2136,,1643,,inactive,Jhe,SID104186966
,3255,7314,1568,2118,inactive,CCT3,SID104196394
,27580,,10492,,inactive,Optix,SID104184870
,7698,,3114,,inactive,Optix,SID104187276
,5.05e5,5.33e5,1.88e5,2.00e5,inactive,Optix,SID104201575
,11421,,3301,,inactive,CG4362,SID104195359
,18353,,15657,,inactive,SppL,SID104195020
,1995,,1277,,inactive,CG33290,SID104191285
,13270,,3512,,inactive,Cyp12a5,SID104196413
Wg reporter activity lowered,528,984,1207,2198,active,lgs,SID104196944
,13635,,4348,,inactive,dpr20,SID104188057
,6368,,1952,,inactive,CG15708,SID104186371
,5793,,1952,,inactive,Cc2d2a,SID104186542
,5174,,2086,,inactive,Cc2d2a,SID104186571
,6549,,1996,,inactive,CG14989,SID104188240
,17130,,3778,,inactive,CG11670,SID104194134
,33165,,10435,,inactive,CG43689,SID104197838
,15588,,2610,,inactive,CG43689,SID104198175
,6.22e5,5.90e5,2.07e5,23912,inactive,CG43689,SID104201926
,18234,,1979,,inactive,cic,SID104194068
Wg reporter activity raised,16256,,1408,,active,cic,SID104195500
Wg reporter activity lowered,3989,,3430,,active,cic,SID104196710
,19765,,8960,,inactive,cic,SID104201035
,1760,6602,967,2108,inactive,Polr3I,SID104199714
,1706,9804,1219,4584,inactive,Acbp2,SID104190933
,15635,,4224,,inactive,SLIRP2,SID104196155
,3628,7060,997,3633,inactive,Urod,SID104187361
,24407,,17515,,inactive,CG14631,SID104197584
,13712,,13051,,inactive,CG14631,SID104197733
,3456,6374,528,2512,inactive,CG6044,SID104184314
,2203,5114,644,1420,inactive,CG15747,SID104199505
Wg reporter activity raised,29427,,4685,,active,ph-d,SID104198611
,4631,,2774,,inactive,CG32305,SID104188406
,16599,,5498,,inactive,Sgs5bis,SID104196055
,5111,7908,2387,2484,inactive,eIF4G2,SID104193999
,3.59e5,4.08e5,88233,89502,inactive,eIF4G2,SID104201409
,16272,,4889,,inactive,Sb,SID104196643
,7346,,2997,,inactive,CG13220,SID104186134
,28768,,7267,,inactive,CG5810,SID104195672
,5.44e5,5.42e5,2.03e5,2.30e5,inactive,CG5810,SID104201544
,1533,5976,800,2168,inactive,CAH15,SID104184326
,18488,,7354,,inactive,CG2120,SID104197999
,2393,8694,1181,4375,inactive,CG14069,SID104182164
,29596,9.66e5,14531,5.50e5,inactive,DIP-epsilon,SID104180724
,3463,10551,272,3218,inactive,DIP-epsilon,SID104182105
,4061,22368,1334,13533,inactive,CG2750,SID104199659
,11715,,3184,,inactive,Ipk1,SID104184027
,2355,6913,800,2313,inactive,Ipk1,SID104184028
,3025,6822,966,2432,inactive,Ipk1,SID104184029
,3123,6578,1104,2129,inactive,CG2217 + CG42740,SID104193933
,23845,,10601,,inactive,CG43737,SID104199401
,21434,,9425,,inactive,CG43737,SID104199402
